The other results are listed elsewhere or left out. Shown are side measurements of this screen, not its main read-out; they come without a call. Compounds called inactive in the main read-out are mostly missing here. Words in brackets tell the shape of the fitted curve; partial curves, single points and poor fits give uncertain potencies.
Experiment: qHTS Assay to Find Inhibitors of Chronic Active B-Cell Receptor Signaling
Conditions: ABC-DLBCL IkBa-CBG/CBR reporter, luminescence ratio (green luciferase fused to IkBa over red control in TMD8 lymphoma cells), 4 h; measured here: CBR red luminescence, cell number
Outline: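 Concentration-response series (up to 46 uM) were applied to TMD8 dual-reporter cells for 4 h at 37C with doxycycline. Green/red ratio, after filter-overlap correction, defined %Activity; red signal alone was normalised to basal cells and zero luminescence.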
In the case of `COc1cccc(OCc2nnc(SCC(=O)NCc3ccco3)n2CCc2ccccc2)c1`, the AC50 is reported as 35.5 µM [falling, single point]. With `CC1=NN(c2nc3ccccc3s2)C(O)(C(F)(F)F)C1` (stereo unspecified) the AC50 was 35.5 µM [rising, single point]. For `COc1ccccc1Nc1ccc(NC(=O)c2cccc([N+](=O)[O-])c2C)cc1`, the AC50 was 35.5 µM [falling, single point]. In the case of `Cc1cnc(C(=O)Oc2c(C)ccc(C)c2C)cn1`, the AC50 is reported as 35.5 µM [rising, single point]. In the case of `CCCOc1ccc(C2C(=O)N(C3CCCCCC3)CC(=O)N2Cc2ccco2)cc1OC` (stereo unspecified), the AC50 is reported as 25.9 µM [rising, single point]. For `CN1CCN(c2ccc(Cl)cc2NC(=O)CN2C(=O)NC(C)(c3ccccc3)C2=O)CC1` (stereo unspecified), the AC50 was 32.6 µM [falling, single point]. For `CC(=O)NC1C(Oc2ccccc2C)OC(CO)C(O)C1O` (stereo unspecified), the AC50 was 35.5 µM [rising, single point]. With `CC(C)c1ccc(N2C=Nc3ccc(C(C)C)cc3C2)cc1` the AC50 was 0.891 µM [falling, full curve, poor fit]. With `COc1ccc(-c2noc(CSc3nc(-c4ccccc4)cc(=O)[nH]3)n2)cc1OC` the AC50 was 2 µM [falling, partial curve, poor fit]. For `CCc1nnc(N/N=C/c2ccc(-c3ccc([N+](=O)[O-])cc3)o2)n1N`, the AC50 was 35.5 µM [falling, single point]. With `N#C/C(=C/c1ccc(N2CCOCC2)o1)C(=O)NC1CCCCC1` the AC50 was 10 µM [falling, partial curve]. For `CCc1c(C)nc2c(-c3ccccc3)c(C)nn2c1Nc1ccc(NC(C)=O)cc1`, the AC50 was 10 µM [falling, partial curve, poor fit]. In the case of `Cc1nc2nc(NCc3cccs3)nn2c(C)c1Cl`, the AC50 is reported as 13 µM [falling, single point]. With `CO/C=C\C=C/c1nnn(-c2ccc(Cl)cc2)n1` the AC50 was 18.4 µM [rising, single point]. In the case of `Cc1cccc(N/C=C/C(=C(C#N)C#N)N(C)C)c1`, the AC50 is reported as 14.6 µM [rising, single point]. In the case of `Cc1ccc2nc(NCC(N)=O)nc(-c3ccccc3)c2c1`, the AC50 is reported as 3.55 µM [falling, partial curve, poor fit]. With `Oc1c(N=Nc2ccccc2)sc2ccccc12` the AC50 was 0.891 µM [falling, full curve]. With `Cc1nnc(Oc2ccc([N+](=O)[O-])cc2)c2ccccc12` the AC50 was 35.5 µM [rising, single point]. With `COc1ccc(NC(C)C(=O)N/N=C/c2cc(Br)ccc2OC)cc1` (stereo unspecified) the AC50 was 35.5 µM [falling, single point]. In the case of `CCOC(=O)Cn1c(=O)oc2cc(S(=O)(=O)Nc3cc(Cl)ccc3OC)ccc21`, the AC50 is reported as 32.6 µM [falling, single point]. In the case of `CCOCCCNc1nc2c(-c3ccccc3)nnn2c2ccccc12`, the AC50 is reported as 14.6 µM [falling, partial curve]. In the case of `Nc1nc(NCCOCCO)nc(Nc2cccc(F)c2)c1[N+](=O)[O-]`, the AC50 is reported as 35.5 µM [falling, single point]. In the case of `CCc1cc(SC#N)cc(C)c1NC(=O)CCl`, the AC50 is reported as 6.51 µM [rising, single point]. In the case of `O=C(CN1CCCC1)Nc1c(C(=O)C2CC2)oc2ccccc12`, the AC50 is reported as 2.82 µM [falling, single point]. For `CC(C)Oc1ccc(/C(O)=C2/C(=O)C(=O)N(CCN(C)C)C2c2cccs2)cc1` (stereo unspecified), the AC50 was 29.1 µM [falling, single point]. In the case of `COc1ccc(CNC(=O)CCS(=O)(=O)Cc2ccc(C)cc2)c(OC)c1`, the AC50 is reported as 28.2 µM [rising, partial curve, poor fit]. For `Cc1cc(S(=O)(=O)Nc2cc(C)c(O)c(C)c2)c(C)s1`, the AC50 was 32.6 µM [falling, single point]. With `O=C1NCCN/C1=C\C(=O)c1ccc(Cl)cc1` the AC50 was 10 µM [falling, partial curve]. In the case of `CC1(C)NC(=O)N(CC(O)COc2cccc(F)c2)C1=O` (stereo unspecified), the AC50 is reported as 9.2 µM [rising, partial curve, poor fit]. For `CCOC(=O)Cc1nnc(Nc2ccc(C)cc2C)c2ccccc12`, the AC50 was 29.1 µM [rising, single point]. With `CCc1cc[n+](-c2nc3ccccc3nc2[N-]S(=O)(=O)c2ccc(Br)s2)cc1` the AC50 was 23.1 µM [falling, single point]. For `O=C(CSCc1ccccc1Cl)N/N=C/c1ccco1`, the AC50 was 1.58 µM [rising, partial curve, poor fit]. For `CCOc1ccccc1N1Cc2ccccc2C1`, the AC50 was 4.11 µM [falling, full curve, poor fit]. With `C=CCc1cccc2ccc(=O)oc12` the AC50 was 8.2 µM [rising, partial curve, poor fit]. In the case of `COc1cc(C(=O)NC2CCN(C)CC2)ccc1Nc1ncc2c(n1)N(C1CCC(O)CC1)CCC(=O)N2C` (stereo unspecified), the AC50 is reported as 16.4 µM [rising, single point]. For `Cc1cccc(C)c1NC(=O)C[N+](C)(C)CC(O)COc1cccc2ccccc12` (stereo unspecified), the AC50 was 4.47 µM [rising, single point]. For `Cc1ccc(NS(=O)(=O)c2ccc(OCC(=O)NCc3cccnc3)cc2)cc1`, the AC50 was 20.6 µM [rising, partial curve, poor fit]. With `COc1cccc(N2CC(=O)N(NC(=O)c3sc4nc(C)cc(C)c4c3N)CC2=O)c1` the AC50 was 14.1 µM [falling, partial curve, poor fit]. In the case of `COc1ccc(NC(=O)C(=O)NNC(=O)c2ccc(Cl)cc2Cl)cc1`, the AC50 is reported as 35.5 µM [falling, single point]. With `O=C(N/N=C/c1ccc(-c2cccc(C(F)(F)F)c2)o1)c1cccc(F)c1` the AC50 was 23.1 µM [falling, partial curve]. For `c1ccc(OCc2cc(-c3ccccc3)no2)cc1`, the AC50 was 35.5 µM [falling, single point]. For `COc1cc(COCC(O)CN2CCN(CCN3C(=O)c4cccc5cccc(c45)C3=O)CC2)cc(OC)c1OC` (stereo unspecified), the AC50 was 1.03 µM [rising, full curve, poor fit]. With `CCOC(=O)c1ccc(NC(=O)CN(C)S(=O)(=O)c2ccc(Br)s2)cc1` the AC50 was 16.4 µM [falling, partial curve]. In the case of `COc1ccc(CC(=O)NCCCc2ccccc2)cc1OC`, the AC50 is reported as 35.5 µM [rising, single point]. For `O=C(N/N=C/c1ccc(N2CCOCC2)cc1)c1ccc(O)cc1`, the AC50 was 8.91 µM [falling, partial curve]. For `O=C(Nc1nc2c(F)cccc2s1)c1ccc2c(c1)OCCO2`, the AC50 was 1.58 µM [falling, full curve, poor fit]. For `CCn1c(C)cc(/C=C2/SC(=O)N(CC(=O)N3CCCC3)C2=O)c1C`, the AC50 was 14.1 µM [rising, single point]. For `COc1ccc(Br)cc1C(=O)Nc1cccc2ncccc12`, the AC50 was 15.8 µM [rising, single point]. For `Nc1nonc1-n1nnc(C(=O)N/N=C/c2ccc(Cl)cc2Cl)c1CN1CCCC1`, the AC50 was 0.631 µM [falling, partial curve, poor fit]. With `CCOC(=O)c1cccnc1SCC(=O)Nc1ccc(C)cc1` the AC50 was 0.282 µM [rising, full curve, poor fit]. In the case of `O=C(NCc1ccccc1)c1cc2ccc(O)cc2oc1=O`, the AC50 is reported as 10 µM [falling, partial curve, poor fit]. For `CCOC(=O)C1CCN(C(=O)c2cccs2)CC1`, the AC50 was 0.631 µM [rising, full curve, poor fit]. In the case of `O=C(/C=C\c1ccc2c(c1)OCO2)NC1(C(=O)Nc2ccc3c(c2)OCO3)CCCCC1`, the AC50 is reported as 14.6 µM [falling, partial curve, poor fit]. In the case of `Cc1ccc(NC(=O)c2ccc([N+](=O)[O-])cc2)cc1S(=O)(=O)N(C)C`, the AC50 is reported as 0.708 µM [rising, partial curve, poor fit]. For `Clc1ccc(OCc2cnc(Cl)s2)cc1`, the AC50 was 10 µM [rising, partial curve]. With `Cc1ccc(OCC(=O)N2CCN(C(=O)CCC3CCCC3)CC2)cc1` the AC50 was 0.00411 µM [rising, full curve, poor fit]. With `CCOC(=O)/C(=C/c1c(C)n(C)c2ccc([N+](=O)[O-])cc12)C(C)=O` the AC50 was 10.3 µM [falling, partial curve]. In the case of `CN(C)CCn1c2c(c(SCC(=O)Nc3cccc4ccccc34)nc1=O)CCCC2`, the AC50 is reported as 16.4 µM [falling, single point]. With `O=C(NNC(=O)c1ccc2c(=O)n3c(nc2c1)CCC3)c1cccc(Cl)c1` the AC50 was 29.1 µM [falling, single point]. With `CCN(CC)C(=O)Cn1cc(C(=O)C(=O)N2CCc3ccccc32)c2ccccc21` the AC50 was 7.94 µM [falling, partial curve]. In the case of `CC(Oc1ccc2c(-c3ccccc3)cc(=O)oc2c1)C(=O)N1CCOCC1` (stereo unspecified), the AC50 is reported as 23.1 µM [rising, partial curve, poor fit]. For `Cc1ccc(S(=O)(=O)N/N=C/c2c[nH]c3ccccc23)cc1`, the AC50 was 11.2 µM [falling, partial curve, poor fit]. For `CCSc1nc2cc(OC)c(OC)cc2c(=O)n1CC`, the AC50 was 32.6 µM [falling, single point]. For `COc1cc2c(cc1NC(=O)COC(=O)[C@@H](NS(=O)(=O)c1ccccc1)C(C)C)oc1ccccc12`, the AC50 was 14.6 µM [falling, partial curve, poor fit]. For `OCCC1CN(Cc2nc3ccccc3s2)CCN1C1CCCC1` (stereo unspecified), the AC50 was 35.5 µM [rising, partial curve, poor fit]. For `COC(=O)c1cc2ccsc2n1Cc1cccc(F)c1`, the AC50 was 16.4 µM [rising, single point].

— PubChem BioAssay AID493014 (National Center for Advancing Translational Sciences (NCATS), 2011)
